Screen size: about 53,000 sequences; about 3,700 (7%) were called active.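 The calls were made as follows: active = gene knockdowns whose robust z-score for IL-1 alpha signal is at least 2 or at most -2, so actives lie on both sides; inactive = the rest.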 Some of the results follow.

Drawing on PubChem BioAssay AID1508600 (Functional Genomics Laboratory (NCATS/FGL), 2020), this text covers z-score for 107 sequences.

This assay can be described thus: Components of the Cytosolic LPS Sensing Pathway: Gene Identification via Genome-wide siRNA Screen.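 Also: robust z of the log signal after scaling to non-targeting control siRNA wells of the plate.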 Particulars: RAW264.7 macrophages, IL-1a HTRF, actives lie on both sides, screened at 100 nM (by protocol), cells primed 5 h with Pam3CSK4 first. The gist of the method:
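RAW264.7; siRNA 100 nM final, RNAiMAX, 48h 37 degrees C; Pam3CSK4 5 h; LipidA + TransIT-TKO 24 h; IL-1a HTRF; CellTiter-Glo viability; robust z vs negative-control median.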
As to GCCCGCCUAUUUGAAAGCATT against Zfp740, the z-score is inactive: 0.839.

GGCCAUUUCGAACAUGGUATT against Acacb: the z-score is inactive: 0.158.

As to GGAACACUGGGAACGUAUCTT against Ifnk, the z-score was inactive: 0.00139.

As to GCUCAUUUCCAGAAGACACTT against Tas2r102, the z-score was inactive: -1.04.

Regarding GCUUAUCUGUCAGUACCACTT against Cxcr6, the z-score is inactive: 0.811.

As for GGAGGAUUUGCCAAGUAACTT against Zbtb33, the z-score was inactive: -0.0596.

Turning to GCCAUUGUUACUGACUGCCTT against Plekhg4, the z-score is inactive: -0.341.

As to GCGGAGUGUCAAUAAAAUATT against Atp6v1g2, the z-score is inactive: -0.494.

Turning to GCUGGAGAAUAAGCUAAUUTT against Kif13a, the z-score was inactive: 1.96.

For GGAGCUUCGUGGAUAAGAGTT against Padi3, the z-score is inactive: -1.79.

Turning to GGAAAAGCAGACAUGUGAUTT against Dedd, the z-score is inactive: -0.875.

As to GGAAAUAUUGAUGCUGCUGTT against Ttc39a, the z-score is inactive: 1.09.

Turning to GGCCUCUUAUGUCAACCUGTT against Rpsa, the z-score is inactive: -1.57.

Regarding GGGAGAUGUAUGCUUGCUCTT against Evi2a, the z-score is inactive: 0.934.

Consider CGUGAUCCCACAGAUGUAGTT against Csrp3, for which the z-score is inactive: -0.649.

Take GGAGGAGCAAAAGUCAGAATT against Palm: the z-score is inactive: 0.705.

CGACUCCAAGGAUUUGACUTT against Anxa10: the z-score was inactive: -1.23.

Take CGUUUGUUACUCUUCAGCUTT against Olfr1461: the z-score is inactive: -1.07.

Take GGCAACGGUACCUUUGUGGTT against Crtac1: the z-score was inactive: -1.06.

As to GGACCAGUACAACUUUAAUTT against Prf1, the z-score was inactive: -0.314.

In the case of GGCCCUUUGAGUUAGAGAATT against Apln, the z-score is inactive: -1.7.

Regarding CCAUUCAAACAGCAUUCAUTT against Itpr1, the z-score was inactive: 1.48.

As for GCACUCUGCCUGAAAUACCTT against Nlrp1a, the z-score is inactive: -0.376.

For the sequence GGAACUGCCUUCGACCUGATT against Galm, the z-score was inactive: -0.795.

As to GGAGAGCUUGUUCAAGUGCTT against Zxdc, the z-score is inactive: -0.86.

For CAUCGUGUGAAACUGGAGATT against Carmil3, the z-score was inactive: 0.608.

Turning to CCAUCAGUUUCAUUAUUGGTT against Fpr-rs6, the z-score is inactive: -0.605.

Turning to CCUUCCAGCUUUAUUAGAGTT against Fzd1, the z-score was inactive: 0.141.

Take GGGCAAAACACUGUCUUUCTT against Tlr5: the z-score was inactive: 1.87.

Take GCCAUACGACUAUAGUAUUTT against Zfp979: the z-score was inactive: 0.191.

Turning to GGCAACUGCCUUUACCAUATT against Tceanc2, the z-score is inactive: 1.67.

In the case of CCCAAUCUCCUAAGAUCUGTT against Snca, the z-score was inactive: 0.784.

Turning to GGGUGUAAAGAAACCUUAATT against Avpr2, the z-score was inactive: 0.453.

Turning to CCGCUACCAGAUAAACUCGTT against BC053393, the z-score is inactive: 0.984.

Turning to GGAGAAAUGGAUCACAUUGTT against H2ax, the z-score was inactive: 1.4.

Regarding GGAGACAGAUGAAUGAACCTT against Tifab, the z-score was inactive: 0.0548.

As to GGCAAUCAGCAUACCAACUTT against Thbs2, the z-score was inactive: -1.87.

GGACCUAAUAAAUUAAGCCTT against Pcf11: the z-score is inactive: 1.

In the case of GGGCUUCAGUAGUCUUCAATT against Sprr2j-ps, the z-score was inactive: -0.475.

With GCAGAUCAAACAGCACUCGTT against Fhad1, the z-score was inactive: -0.386.

For the sequence GGAAAAAGGAGGGUUUAGCTT against Tm4sf5, the z-score is inactive: 0.418.

Turning to GGUAUCAGGAUAAUAUAGATT against Slc25a48, the z-score is inactive: 0.494.

As to GCUCAAGACAUACUUUGAATT against Ddx56, the z-score is inactive: -0.635.

For GGUGGAAUUUUUGAAGUUUTT against Tbl1xr1, the z-score is inactive: 1.19.

GGCAGACUCGACAGUUCAATT against Pde6h: the z-score is inactive: 0.0959.

Regarding GGCCAGACUUUCUGACUAUTT against Golga1, the z-score was inactive: 0.0556.

Take “GCGGAAACUUGUUAACGAATT against 1600014C10Rik”: the z-score is inactive: 0.422.

In the case of GGUCAUACAUGUGAAGACATT against Tsr2, the z-score is active: 2.01.

As to GGCCUUUUCCAUAAACUUUTT against Ddx60, the z-score was inactive: 0.873.

Turning to GCUUCUUAGAGUCUUACCUTT against Rnf38, the z-score was inactive: -1.23.

Consider GCGGCAUCUACUUAAUAUGTT against Acer2, for which the z-score is active: 2.12.

For CCCUCACAACUUGAAGGACTT against Ccnk, the z-score was inactive: -0.882.

Regarding GGGACAUGAGCCAUUCAUCTT against Lcor, the z-score is inactive: 0.749.

As to GCCUAGAAAGUCUGAAUAATT against Ifng, the z-score is inactive: 0.203.

For GAUUGCUACUCUGGCUUUATT against Tmem47, the z-score is inactive: -0.284.

In the case of GGCUUGUACUACCAUGACATT against Rasgef1b, the z-score was active: -2.76.

As to GAUCAAAGAGGAGGAGCCCTT against Insm2, the z-score was inactive: -0.202.

As to GGAAAACCCAGGUCAGAAUTT against Serpina9, the z-score is inactive: -1.07.

Consider GGUUAAAGGCAACCCUGAATT against Cys1, for which the z-score is inactive: 1.79.

CGCAACCUGAAAAUGGCAUTT against Clba1: the z-score is inactive: 0.34.

CCAUAUCUAUGAUAUGGUUTT against Piezo2: the z-score is active: -2.18.

For “GCAUGCAUAAGCUUUUACCTT against 1700129C05Rik”, the z-score is inactive: -1.64.

As for “GAGUGAGCAAAUACCAGUUTT against 1700001J03Rik”, the z-score is active: 2.52.

As to CCUUAGCUGUCCUUGUGGUTT against Defb28, the z-score is inactive: -1.36.

For the sequence GCAGCUAUCUCUCAUGGACTT against Olfr693, the z-score is inactive: 1.15.

For the sequence GGGUCACCGAUGGAAAUCUTT against Lta4h, the z-score was inactive: -1.58.

On to GGUGGUGUGCAAAAAGUACTT against Clic1, for which the z-score is inactive: -0.0209.

GGACUUGAAACUUCUGGAUTT against Nudt16: the z-score was inactive: 0.453.

In the case of CCCACCAAUGUCAGCGUGUTT against Igha, the z-score was inactive: 0.207.

For the sequence CCGUGUGAGAUAUGAAGAATT against Ermard, the z-score was inactive: -1.55.

For the sequence GGCUGUGAAGCAAAAGCAGTT against Nhp2, the z-score was inactive: 0.276.

On to GGUGUAUACUGUGAAAUCATT against Notch1, for which the z-score is inactive: -0.319.

For the sequence GGUGUGUGCUAGGACUGAGTT against Cfap61, the z-score is inactive: 1.35.

For CCGGACAAUAUGCUUAUUUTT against Mastl, the z-score is inactive: -0.52.

Consider GGCAUAAAAUCCAUCUAAUTT against Htr2a, for which the z-score is inactive: -0.219.

On to CCACAUCAAGUUCACCCAGTT against Dctn1, for which the z-score was inactive: -0.337.

Consider CGCAAAAUUCCGAUGGUGCTT against Pla2g12b, for which the z-score was inactive: -0.97.

Take GCGGCGAGUGUAUAGAUUGTT against Zdhhc1: the z-score is inactive: 0.211.

AGUCUCCAAAUGCAUUUAATT against Serpinb9g: the z-score is active: -2.5.

Take GCCGGAACAUCCAGAAUAGTT against Cpeb2: the z-score is inactive: -0.644.

Regarding GGAACUAGAGUCUCAAGUATT against Obi1, the z-score was inactive: 0.718.

CCAGUUAAAAAGGUUCCAATT against Ccdc169: the z-score was inactive: 1.46.

On to GGACAUUAUUUCUAUAUGGTT against Eif4e2, for which the z-score was inactive: -1.2.

GGCCCUAAUUUCAGUAAUATT against Pigv: the z-score was inactive: 0.568.

With GGAAACCUACCAAGAAACGTT against Fam234a, the z-score was inactive: -0.293.

As for GGUGGCCAUUCUUCUGUUCTT against Dynll1, the z-score is active: 2.19.

Turning to GGGCUGGAAAGAACUUUACTT against Fgf8, the z-score is inactive: -0.354.

Consider GCUCUUGGGAUGGACGAUATT against Hmgcs1, for which the z-score was active: 4.73.

For the sequence GGAAGGUGGCCUGAAGCUATT against Mlh1, the z-score is inactive: -1.62.

As for GGGCUCUGUUGUAAUCAUGTT against Olfr366, the z-score is inactive: -0.173.

GCAUGGCCCAUGAAGACUUTT against Pir: the z-score was inactive: -1.19.

GGGAAAAAGAGAGUCUAUUTT against Tns2: the z-score was inactive: 1.14.

In the case of GGCCAUCUUUGACAGUGCUTT against Dnah1, the z-score is inactive: 1.11.

Consider “GGAAACCUGAUGAUCUUUUTT against Olfr421-ps1”, for which the z-score is inactive: -1.27.

As for GGAAUUAAAUCCUAGCUGATT against Tmem167, the z-score is inactive: 1.64.

For the sequence CCGACGGAUAGCUUGGAUGTT against Fgb, the z-score was inactive: -0.214.

Consider GGUCAGAGAUUAUUGAAUUTT against Ermap, for which the z-score was inactive: 0.321.

As to CCCGGAUUAUUAAUGAGUCTT against Trim50, the z-score is inactive: 1.08.

For GGAUGAUCUACACAUUGUGTT against Mrpl4, the z-score is inactive: 0.519.

For CCUUGUCAUUCCAUACAAUTT against Rgs5, the z-score was inactive: 0.2.

As to GGUUUGGUGUCAGAUGUCATT against Olfr1182, the z-score was active: -2.32.

Regarding GCACAACACAAUCUAUAUGTT against Reps2, the z-score is inactive: -0.0604.

Consider GGCUGGAAAAAAUUUUGUCTT against Gemin2, for which the z-score was inactive: 0.266.

Consider GGUUCACCUGUCAAGUGGATT against Hfe, for which the z-score is inactive: 0.655.

Regarding GGCCAUAGAUAUUCAAGGUTT against Olfr218, the z-score was inactive: 0.293.

In the case of CGAGAUCACGAGAUCGGUUTT against Prdm4, the z-score was inactive: 1.89.

Regarding GGUACAGGGAAGGAUCGUGTT against Tnrc18, the z-score was inactive: -0.654.
